{"source": "PubChem BioAssay AID1347423", "about": "(Functional Genomics Laboratory (NCATS/FGL), 2020)", "note": "Out of some 52,000 sequences screened, about 210 (0.4%) were called active.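 The calls were made as follows: active = gene whose silencing raises cell survival under the drug, median off-target-corrected z-score across its silencing RNAs 2 or more; inactive = the rest.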 This is one part of the list."}
{"assay": "Resistance to Poly (ADP-Ribose) Polymerase inhibitor: Gene Identification via Genome-wide siRNA Screen", "settings": "mouse BRCA2 R2336H ES cells, olaparib, CellTiter-Glo viability; hits give high values", "procedure,_shortened": "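Genome-wide siRNA screen (3 siRNAs/gene, 20 nM) in mouse ES cells carrying hypomorphic BRCA2 R2336H; olaparib 500 nM added 48 h post-transfection, CellTiter-Glo viability 72 h later. Normalized to plate-median negative control; MAD z-scores, gene median, seed-adjusted.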"}
{"sequence": "GCAAACGUAUCAAGAGCAATT against Naca", "z-score": "inactive: -1.79"}
{"sequence": "GGUCAUAGAAUUCAUGUCCTT against E230016K23Rik", "z-score": "inactive: 1.02"}
{"sequence": "GGUAGUUCAGAUCUGAUUUTT against Polydom", "z-score": "inactive: -0.515"}
{"sequence": "CCAGAAUGUAUCCAGGCCUTT against Siat7d", "z-score": "inactive: 0.667"}
{"sequence": "GCCAACGCAGCAAAAGCUCTT against D4Wsu53e", "z-score": "inactive: 0.269"}
{"sequence": "CGAAUAAAGCUUCAUUGUGTT against Atp5k", "z-score": "inactive: 0.0614"}
{"sequence": "GCUUCAGUCGAAGUUCCUUTT against Zfp189", "z-score": "inactive: 0.544"}
{"sequence": "GGGUGUUGACAUAAAAAAUTT against Nsdhl", "z-score": "inactive: -0.151"}
{"sequence": "CGGUCAUUAAUGAAGCCUGTT against E430002G05Rik", "z-score": "inactive: -1.83"}
{"sequence": "GCUUGAAGGUAUAAUUUCATT against Cldn12", "z-score": "inactive: -1.92"}
{"sequence": "GGAGGUACUUCCGAUUGAGTT against 1700058C13Rik", "z-score": "inactive: 0.606"}
{"sequence": "GGUUGUUCCCGGAAGAAUCTT against Rtn4r", "z-score": "inactive: -1.16"}
{"sequence": "CCACUAUCCCACCAAUCACTT against 2210415F13Rik", "z-score": "inactive: -0.19"}
{"sequence": "CCACCACUCUAUCAGAGGUTT against Evx1", "z-score": "inactive: 0.696"}
{"sequence": "GUACGUCAUGGGUCACUUCTT against Pomc1", "z-score": "inactive: -0.0856"}
{"sequence": "GGUUGGGAUACAUUCAACGTT against Mscp", "z-score": "inactive: 0.871"}
{"sequence": "GGAAUUUAAAAGUAGCAAGTT against 6430601A21Rik", "z-score": "inactive: 1.5"}
{"sequence": "GGAUGGCGAUAAGAAGAUUTT against C3", "z-score": "inactive: -0.936"}
{"sequence": "CGAGCUAUUUACUUUGAUGTT against Gfm", "z-score": "inactive: -0.419"}
{"sequence": "GGCAGCCCUUUUGCUAAGATT against Neurod1", "z-score": "inactive: 0.891"}
{"sequence": "UGCUUUGCAUCUGGCUGUATT against Hs3st3b", "z-score": "inactive: 0.0196"}
{"sequence": "GGUAAAGAUAAUUGACAACTT against Isp2", "z-score": "inactive: -0.399"}
{"sequence": "GGUGGAGGGUUUCAUCAAUTT against Alg3", "z-score": "inactive: 0.271"}
{"sequence": "GGCUUUGCUUUCCUUACUUTT against RbmY1a1", "z-score": "inactive: 1.02"}
{"sequence": "GGAUCGAGUUUGGUGUAGATT against Usp10", "z-score": "inactive: 0.787"}
{"sequence": "CCCUUACUUAGUCUCCACUTT against Olig1", "z-score": "inactive: 0.734"}
{"sequence": "GGCUUGCUAGAUAACAUCATT against Timm44", "z-score": "inactive: -2.46"}
{"sequence": "GGAAUUUCACUAACCUUAGTT against Tert", "z-score": "inactive: -2.65"}
{"sequence": "GCGAAUAUCCAACCUAUCUTT against Itgb7", "z-score": "inactive: -0.459"}
{"sequence": "GGAACUGGCCAAUUACUACTT against Rad52b", "z-score": "inactive: -0.981"}
{"sequence": "GCUUCUAUGAUCGUACGGATT against Nid1", "z-score": "inactive: -0.791"}
{"sequence": "GGCAUCUGAAUUCCCUUCUTT against Idb2", "z-score": "inactive: 0.603"}
{"sequence": "CCCUCAAUGCUGGAAAACCTT against Nol4", "z-score": "inactive: 0.694"}
{"sequence": "GGGCGUAGAAACAGCAACUTT against Ushbp1", "z-score": "inactive: -0.768"}
{"sequence": "GCAGCUUUGCUCAGCCCAATT against 1700028O09Rik", "z-score": "inactive: -0.647"}
{"sequence": "GGCCACCCUUUCAGAAAUGTT against Fut9", "z-score": "inactive: 0.762"}
{"sequence": "GGGACGACUCUUUCUUAUGTT against Ors16", "z-score": "inactive: 0.303"}
{"sequence": "CGGGAACUCACCGAAAAGATT against 4921521N14Rik", "z-score": "inactive: 0.566"}
{"sequence": "GCUGUUUAAAGAUAUGUGGTT against Nfx1", "z-score": "inactive: 0.852"}
{"sequence": "GGAGGUGGUACAGUAGCAUTT against Olfm4", "z-score": "inactive: 1.41"}
{"sequence": "GCGAACCUACGACUUCUACTT against Chst8", "z-score": "inactive: -0.189"}
{"sequence": "GGAAUUUCAUACAAACUCUTT against A730024A03Rik", "z-score": "inactive: -1.31"}
{"sequence": "GGCAUGAGAUUCUCAAUCCTT against 8430415E04Rik", "z-score": "inactive: -0.167"}
{"sequence": "GGAUUCUGUCUCCAGAUAUTT against 1700040L02Rik", "z-score": "inactive: 0.243"}
{"sequence": "CGAAAGUGAUCAAAUAGAATT against Zcchc12", "z-score": "inactive: -0.722"}
{"sequence": "GGUGGCUUCAUUUUAGAAGTT against Xpa", "z-score": "inactive: -0.16"}
{"sequence": "GGAAAACAAUGCCAAAGGGTT against Evx2", "z-score": "inactive: -1.13"}
{"sequence": "GGCCGUUUUAAGAAAGGCCTT against 5830427D03Rik", "z-score": "inactive: -0.137"}
{"sequence": "CCGAAUACGUGAAGACGCATT against Slc25a1", "z-score": "inactive: 0.487"}
{"sequence": "GGUCUUGGCACAAUUACAUTT against Actl6a", "z-score": "inactive: -2.05"}
{"sequence": "GGGUGCAAGGGCACCAAAATT against 1700049M11Rik", "z-score": "inactive: -1.72"}
{"sequence": "GGUACCAACACAAGUAACATT against Dyrk1a", "z-score": "inactive: 0.447"}
{"sequence": "GGCCAUCCUGGGCUAAAUATT against 4833412N02Rik", "z-score": "inactive: 1.7"}
{"sequence": "GGAGAUCUAACUCUGUAUGTT against Hpse", "z-score": "inactive: 0.757"}
{"sequence": "GGUGUGUUACUGAUGAUUCTT against Olfr669", "z-score": "inactive: 1.16"}
{"sequence": "GGACAGCCUUGUGUCAAAATT against Ramp2", "z-score": "inactive: 2.08"}
{"sequence": "GGAAAAGGGCAAGCACAUGTT against Ard1", "z-score": "inactive: 0.142"}
{"sequence": "GGUUACCCAUGCAGUUGUUTT against Hspa5", "z-score": "inactive: -0.353"}
{"sequence": "GGCUCAGAACCUUCUGAAATT against Exoc7", "z-score": "inactive: 0.212"}
{"sequence": "CCAAACCAUAUGGAGAAGGTT against Obfc1", "z-score": "inactive: 1.16"}
{"sequence": "GCAGAAGCUAUAUAGCAAGTT against AU041707", "z-score": "inactive: -0.537"}
{"sequence": "GGUGUCAUUCACAAAAACUTT against Csnk1g1", "z-score": "inactive: 0.594"}
{"sequence": "CCUUGAUCAUUUUAAUUGGTT against Olfr913", "z-score": "inactive: 0.615"}
{"sequence": "GGAAUUGAAACCUGAUGUUTT against 2810036K01Rik", "z-score": "inactive: -2.32"}
{"sequence": "GCUAAUUAAACGAAGCAUCTT against Lmo4", "z-score": "inactive: -0.349"}
{"sequence": "GGGACCUGUCGUCAGACUUTT against Gnb3", "z-score": "inactive: -1.39"}
{"sequence": "CCGAAAUUUUGAGUACUGUTT against V1re10", "z-score": "inactive: 1.36"}
{"sequence": "GGACCAUCUGUCCACAGUUTT against 9030617O03Rik", "z-score": "inactive: -2.05"}
{"sequence": "GGCUUUCAAUGAUUAGACATT against Ptpn20", "z-score": "inactive: 0.609"}
{"sequence": "GGCCUGAAAGACGAAGAGATT against Stk38", "z-score": "inactive: -1.3"}
{"sequence": "CCACACCAAGGACUUAUGGTT against Cd164l1", "z-score": "inactive: -1.44"}
{"sequence": "GGCGGAACACAUGACUAGGTT against Ilf3", "z-score": "inactive: 1.06"}
{"sequence": "GCCGGAAUGCCCUAAUUUCTT against Olfr684", "z-score": "inactive: 2"}
{"sequence": "GGAAAGUUCUAAUGUUCAUTT against Sumo1", "z-score": "inactive: -1.39"}
{"sequence": "GGUUCCAUGUGACAGUAGCTT against A930013K19", "z-score": "inactive: 2.04"}
{"sequence": "CCUAAGGCUGAAGCGGAGATT against Dusp9", "z-score": "inactive: 0.444"}
{"sequence": "GGAGAUGUAUAAGAAAGCUTT against Rpl5", "z-score": "inactive: -2.16"}
{"sequence": "GGAAAGUUCCCAUGUUCUCTT against 4933406M09Rik", "z-score": "inactive: -1.43"}
{"sequence": "CCGAUGCGCAAGUAAAAACTT against Tlx1", "z-score": "inactive: 1.56"}
{"sequence": "GCAGCUUAGUGAUUUGAAATT against Tex21", "z-score": "inactive: -0.421"}
{"sequence": "GGUAUUAGCAUGUACCUUCTT against Olfr138", "z-score": "inactive: -1.62"}
{"sequence": "GGUUCUGGACUUCAUCCUCTT against 4833422F24Rik", "z-score": "inactive: 2.14"}
{"sequence": "GCUGUUCAUACCUAGUGGGTT against BC019206", "z-score": "inactive: -0.819"}
{"sequence": "GGCGAAGAUUGAAAAAUGCTT against Ube3c", "z-score": "inactive: 0.972"}
{"sequence": "CCUAUACAAGUAGGCAAUATT against 2310044G17Rik", "z-score": "inactive: -2.41"}
{"sequence": "GCUUAAAUUCUGUUCCAACTT against Ddx42", "z-score": "inactive: -2.08"}
{"sequence": "GGUGCUCAAAGAAUGCAUUTT against Prkar1b", "z-score": "inactive: -0.607"}
{"sequence": "GGCAACCAGUUGAAAUAUUTT against Mbnl3", "z-score": "inactive: -1.33"}
{"sequence": "GGCUUUUCUAGUUCCUCAATT against 9130207N01", "z-score": "inactive: -0.899"}
{"sequence": "CAAGAUGAUUAUUAGAGAGTT against LOC380907", "z-score": "inactive: 0.121"}
{"sequence": "GGAGAUUGAAGAGUUUGACTT against Rangap1", "z-score": "inactive: -1.39"}
{"sequence": "CGGUUUGAGUAUAUUGGAGTT against Sh3d19", "z-score": "inactive: -0.0374"}
{"sequence": "GCCGUAACUCUUGACAAUGTT against Stoml2", "z-score": "inactive: -1.32"}
{"sequence": "CCCUGCCUUCUGUUGAGAATT against 4930451I11Rik", "z-score": "inactive: -0.0526"}
{"sequence": "CGCAGGAUAUUUCUAUCCATT against Prlpn", "z-score": "inactive: -0.152"}
{"sequence": "GCGUGGAGUCUUCAGUCAUTT against Vhlh", "z-score": "inactive: 0.976"}
{"sequence": "GGCUCAAGACUUAAAUUCATT against Olfr1100", "z-score": "inactive: 0.00946"}
{"sequence": "CGCCUUUUGGAAACGCAAATT against Sh3bp4", "z-score": "inactive: -0.514"}
{"sequence": "GGCUAUGUACAAGACUAUGTT against Eif3s1", "z-score": "inactive: 0.504"}
{"sequence": "GGUCAAAGAACAAAAAGAATT against Ly64", "z-score": "inactive: -0.59"}
{"sequence": "GCGCAUAUUUUAUCAACUCTT against Plcb3", "z-score": "active: 1.31"}
{"sequence": "CCACCGUCUAUUUCAUUGUTT against Adora3", "z-score": "inactive: -0.683"}
{"sequence": "CCUCUAGGUCAUUUUACCUTT against Scmh1", "z-score": "inactive: -0.281"}
{"sequence": "GGUUGUGCAGUUUUAUUUCTT against Tceal1", "z-score": "inactive: -0.679"}
